PubChem BioAssay AID2685 (National Center for Advancing Translational Sciences (NCATS), 2010)
Where “and” joins values, the source holds several entries; their conditions need not be identical. Identical values can stand only once. Some of the results follow. Shown are side measurements of this screen, not its main read-out; they come without a call. Most of these compounds were active or inconclusive in the main read-out, so they are no random draw. The note in brackets gives the kind of curve behind each potency; many fits are weak.

Experiment: qHTS Assay for Lipid Storage Modulators in Drosophila S3 Cells;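 for cell number change: cells counted by Cell Tracker Red CMTPX staining in the red channel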
Conditions: BODIPY lipid droplet fluorescence, 18-24 h; for cell number change: measured here: cell count max response, cells fed with added oleic acid
How it was run: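 Laser-scanning cytometry quantifies lipid droplet accumulation (500–530 nm total intensity; droplet/cell object ratio) in oleic acid-fed (400 uM added) Drosophila S3 cells treated with a concentration series. 20 uM Triacsin C defined 100% inhibition.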

[1] = measured here: lipid fluorescence (Fed channel) AC50, cells fed with added oleic acid
[2] = measured here: cell number channel AC50, cells fed with added oleic acid

SMILES	cell number change	AC50 [1]	AC50 [2]
O=S(=O)(Nc1ccc(O)c2ccccc12)c1ccc(Br)cc1	2.56%	5.17 µM [rising, single point]	–
COc1ccc(CCNC(=O)c2ccc3c(c2)NC(=O)C(N2CCOCC2)S3)cc1OC (configuration not stated)	–	2.91 µM [falling, partial curve]	–
Cc1cccc(-n2ncc3c(NCCCN4CCCC4=O)ncnc32)c1	-26.8%	0.00461 µM [falling, full curve, poor fit]	–
CC(C)[C@H](NS(=O)(=O)c1cccc(C(F)(F)F)c1)C(=O)OCC(N)=O	-52.4%	–	29.1 µM [falling, single point]
C#CCOc1ccc(/C=C2/C(=O)NN(c3ccccc3)C2=O)cc1OC	14.4%	29.1 µM [falling, single point]	0.103 µM [rising, full curve, poor fit]
O=c1c2ccccc2sn1-c1nccs1	-61.5%	16.4 µM [falling, partial curve, poor fit]	32.6 µM [falling, single point]
COC(=O)Cc1ccc(NC(=S)Nc2ccc(N3CCOCC3)cc2)cc1	32%	–	–
CC1=C([N+](=O)[O-])C(c2ccc(O)c(O)c2)NC(=O)N1 (configuration not stated)	18.9%	29.1 µM [rising, single point]	–
CCOC(=O)C1CCN(Cc2ccc(OC)cc2OC)CC1	-138%	29.1 µM [falling, partial curve]	29.1 µM [falling, partial curve]
O=C(Nc1ccncc1)Nc1ccncc1	7.57%	–	–
COC(=O)CSc1nnc(CNc2ccc(Cl)cc2)n1Cc1ccccc1	-32.7%	18.4 µM [falling, partial curve]	0.92 µM [falling, full curve]
Cc1ccc(C)c(C(=O)CCC(=O)O)c1	7.34%	0.411 µM [falling, full curve, poor fit]	–
CCCCSC(=O)Nc1ccccc1	-17.6%	–	–
CCN(CC)S(=O)(=O)c1ccc(/C=C/C(=O)OCC(=O)Nc2cccnc2Cl)cc1	-10.2%	0.00461 µM [falling, full curve, poor fit]	–
CCC(C)[C@H](NC(=O)[C@@H]1CSC2c3ccccc3C(=O)N21)C(=O)NCc1ccncc1 (some centres not stated)	-9.2%	6.51 µM [falling, single point]	–
O=C(O)CSc1nnc(-c2ccncc2)n1-c1ccc(Cl)cc1	-51%	29.1 µM [falling, single point]	29.1 µM [falling, single point]
Cc1c(Cc2ccc3c(c2)OCO3)sc(NC(=O)c2ccccc2)c1C(N)=O	-42.7%	32.6 µM [falling, single point]	32.6 µM [falling, single point]
Cc1cccc(NC(=O)c2ccc(Cl)c(S(=O)(=O)N3CCc4ccccc43)c2)n1	-1.81%	13 µM [falling, partial curve, poor fit]	–
NNC(=S)Nc1cccc(Cl)c1	-2.56%	–	–
O=C(CCNC(=O)c1ccc([N+](=O)[O-])cc1)NCCCN1CCCC1=O	28.1%	–	0.092 µM [rising, full curve, poor fit]

SMILES	cell number change	AC50 [1]	AC50 [2]
COc1cccc(CN2C(=NC(=O)C3CC3)SC3CS(=O)(=O)CC32)c1 (configuration not stated)	24.8%	29.1 µM [rising, single point]	–
O=C(c1ccc2c(c1)N(Cc1cccc(Cl)c1)C(=O)c1ccccc1S2(=O)=O)N1CCN(c2ccccn2)CC1	–	2.06 µM [rising, partial curve, poor fit]	2.31 µM [rising, partial curve]
O=C(O)c1cccc(N2C(=O)Nc3ccccc3N2O)c1	-14.1%	3.26 µM [falling, partial curve, poor fit]	–
CCOC(=O)c1ccc(NC(=S)NCc2ccccc2)cc1	-3.56%	–	–
Cc1cc(C)cc(NC(=O)C(Sc2nnc(C)c(=O)[nH]2)c2ccccc2)c1 (configuration not stated)	-20.5%	18.4 µM [falling, partial curve]	0.103 µM [falling, full curve, poor fit]
CC(C)N(C(=O)Cn1cc(S(=O)(=O)CC(=O)NCc2ccccc2)c2ccccc21)C(C)C	1.08%	29.1 µM [rising, single point]	–
O=C(/C=C/Nc1cccc(F)c1)c1ccco1	74%	–	20.6 µM [rising, single point]
CC(=O)Nc1ccc(S(=O)(=O)NCC(=O)NCCc2ccc(S(N)(=O)=O)cc2)cc1	-7.81%	–	–
C/C(Sc1nnc(Cc2ccccc2)o1)=C(/O)c1ccccc1	5.73%	–	–
Cc1nnc(SC(C(=O)Nc2ccc(Cl)c([N+](=O)[O-])c2)c2ccccc2)[nH]c1=O (configuration not stated)	-10.9%	6.51 µM [rising, partial curve]	6.51 µM [rising, single point]
COC(=O)C1CCN(C(=O)c2cc(=O)[nH]c3ccccc23)CC1	–	–	2.31 µM [rising, partial curve]
CCOC(=O)C1CCN(C(=O)/C=C/c2ccc3c(c2)OCO3)CC1	10.1%	–	–
Cc1ccc(NC(=O)CN2CCC(NC(=O)c3cccc(F)c3)CC2)cc1C	-20.9%	0.103 µM [falling, partial curve, poor fit]	–
Cc1nc2nc(-c3ccccc3)[nH]n2c(=O)c1C	24.2%	29.1 µM [rising, single point]	–
COc1ccc(-c2cc(OC)c3c(C)oc(C)c3c(=O)c2)cc1OC	-33%	1.3 µM [rising, partial curve]	0.291 µM [falling, full curve, poor fit]
CNC(=O)c1c(NC(=O)c2ccc(S(=O)(=O)N3CCCC3)cc2)sc2c1CCN(C(C)C)C2	10.9%	–	–
CCCCN(CC)C(=O)c1ccc2c(c1)OCO2	–	0.13 µM [rising, partial curve, poor fit]	–
COc1cc(/C=N/NC(=O)CCN2CCCCC2)ccc1O	-48.7%	0.206 µM [falling, full curve]	29.1 µM [falling, single point]
COCCN(Cc1cc2cc(C)cc(C)c2nc1Cl)C(=O)Nc1ccccc1	–	0.259 µM [falling, full curve]	–
O=C(Cn1cnc2c(cnn2-c2ccc(F)cc2)c1=O)OCc1ccccc1	0.822%	–	–

SMILES	cell number change	AC50 [1]	AC50 [2]
CC(C)N(C(=O)CN1CCC(c2nc3ccccc3[nH]2)CC1)C(C)C	17.6%	0.82 µM [rising, single point]	–
O=C(Cc1ccc(-n2cccc2)cc1)N1CCN(c2ccccc2F)CC1	9.74%	7.31 µM [rising, partial curve]	–
COc1ccc(-c2c(C(F)(F)F)nn(C)c2NC(=O)c2cccnc2)cc1	–	–	0.00517 µM [rising, full curve, poor fit]
O=C(Nc1ccc(Cl)cn1)c1ccccc1F	11.7%	29.1 µM [rising, single point]	–
COc1ccc(N2C(=O)CC(N3CCN(c4ccc(S(C)(=O)=O)cc4)CC3)C2=O)cc1 (configuration not stated)	3.06%	6.51 µM [falling, single point]	–
COC(=O)c1cc2ccsc2n1Cc1nc(-c2ccc(OC)cc2)oc1C	–	–	2.91 µM [rising, partial curve]
COC(=O)c1ccccc1NC(=O)COC(=O)c1ccccc1N=Nc1ccc(N(C)C)cc1	-57.8%	2.06 µM [rising, partial curve]	18.4 µM [falling, partial curve]
Cc1ccc(C)c(N=Cc2ccc(-c3ccc([N+](=O)[O-])cc3)o2)c1	-0.361%	–	–
COc1cc(Cl)ccc1OCc1cc(C(=O)N[C@H]2CCCCNC2=O)no1	0.567%	16.4 µM [rising, partial curve]	–
O=C(Nc1ccc2[nH]ncc2c1)c1cccc(F)c1	-15.4%	–	–
Cc1cc(C)n(-c2ccc(S(=O)(=O)N3CCCC3)cc2[N+](=O)[O-])n1	-0.585%	6.51 µM [falling, single point]	–
O=C(O)c1ccc2c(=O)n(Cc3ccccc3)c(SCc3ccc([N+](=O)[O-])cc3)nc2c1	39.4%	–	29.1 µM [rising, single point]
CNC(=O)C1CCCN1S(=O)(=O)c1ccc(OC)cc1 (configuration not stated)	-201%	–	18.4 µM [falling, partial curve]
CCn1nc(C)c(/C=N/NC(=O)Cn2nnnc2N)c1C	–	29.1 µM [falling, single point]	–
Cc1ccc(CN(C)Cc2cc(=O)oc3cc(C)c(Cl)cc23)cc1	5.74%	29.1 µM [rising, single point]	–
Cc1c(OCC(F)(F)F)ccnc1CS(=O)c1nc2ccccc2[nH]1 (configuration not stated)	-33.3% and -33.6%	20.6 µM [falling, single point] and 29.1 µM [falling, single point]	29.1 µM [falling, single point]
CCOc1ccc2nc(N(CCN(CC)CC)C(=O)/C=C/c3cccs3)sc2c1	15.3%	–	0.461 µM [rising, single point]
CN(C)C(=O)c1cc(C(=O)c2ccccc2Cl)c[nH]1	94.8%	–	29.1 µM [rising, partial curve, poor fit]
CCCCn1c(N)c(N(CC(C)C)C(=O)c2cccc(S(=O)(=O)N3CCCCCC3)c2)c(=O)[nH]c1=O	–	–	0.146 µM [falling, full curve, poor fit]
O=C(Nc1ccccc1)c1ccc2ccccc2n1	20%	0.13 µM [falling, full curve, poor fit]	–
